# According to publication doi:10.1101/2020.02.01.930172:
# Chains of the proteins cited; added tags and fusions are not shown.
# UniProt Q8N6T7: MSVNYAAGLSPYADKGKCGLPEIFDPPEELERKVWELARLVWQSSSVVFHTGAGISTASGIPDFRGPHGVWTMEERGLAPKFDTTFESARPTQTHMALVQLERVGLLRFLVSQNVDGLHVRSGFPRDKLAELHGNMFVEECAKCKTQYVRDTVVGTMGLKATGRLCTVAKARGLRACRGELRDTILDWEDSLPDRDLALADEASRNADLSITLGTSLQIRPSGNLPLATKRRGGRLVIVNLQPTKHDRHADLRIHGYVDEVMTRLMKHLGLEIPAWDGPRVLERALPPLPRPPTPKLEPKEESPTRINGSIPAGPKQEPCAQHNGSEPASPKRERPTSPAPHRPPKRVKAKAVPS
# These are yes or no findings as the source states them, for the method shown. In cells and extracts the contact can be indirect. Some results given as binding are weak or reduced against the parent protein; the word gives no strength.
# Molecular target: SIRT6 wild type, overexpressed in HEK293 cells as FLAG-SIRT6 or HA-SIRT6 (human) (UniProt Q8N6T7)
# Experiment: co-IP
substance,measurement,value
"SIRT6 wild type, overexpressed in HEK293 cells as FLAG-SIRT6 or HA-SIRT6 (from UniProt Q8N6T7 1-355)",binding,binds
